# Data taken from article PMC9816108.
# The chains behind the UniProt entries cited, without tags or fusion partners. Residues count along the entry.
# UniProt P26048, residues 29-451: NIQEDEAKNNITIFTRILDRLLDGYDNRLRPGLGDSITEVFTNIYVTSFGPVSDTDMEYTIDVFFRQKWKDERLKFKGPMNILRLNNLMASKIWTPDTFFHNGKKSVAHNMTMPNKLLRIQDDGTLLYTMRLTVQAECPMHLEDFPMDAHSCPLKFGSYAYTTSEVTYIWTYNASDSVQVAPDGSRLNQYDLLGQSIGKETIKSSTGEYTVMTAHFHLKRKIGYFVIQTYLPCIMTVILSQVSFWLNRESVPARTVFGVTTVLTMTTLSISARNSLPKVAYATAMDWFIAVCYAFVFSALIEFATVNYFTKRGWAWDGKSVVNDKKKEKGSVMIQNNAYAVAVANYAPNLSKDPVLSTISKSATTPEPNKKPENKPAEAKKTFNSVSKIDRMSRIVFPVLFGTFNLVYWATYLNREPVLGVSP
# Target: GABAA receptor α2 subunit modified with pHluorin and 9E10 (myc) epitope on its N-terminus (mouse (knock-in, forebrain)) (UniProt P26048)
# Assay: affinity purification with mass spectrometry; α1 and α2 (pHα2) receptors immunopurified from mouse forebrain plasma membrane fractions, BN-PAGE, 720 kDa species excised, label-free LC-MS/MS; only proteins significantly enriched over control (non-immune IgG, or anti-9E10 in wild type tissue)
row,binding,Binder
1,binds,"Cnp (protein, UniProt P16330 1-420) MNTSFTRKSHTFLPKLFFRKMSSSGAKEKPELQFPFLQDEDTVATLHECKTLFILRGLPGSGKSTLARLILEKYHDGTKMVSADAYKIIPGSRADFSEAYKRLDEDLAGYCRRDIRVLVLDDTNHERERLDQLFEMADQYQYQVVLVEPKTAWRLDCAQLKEKNQWQLSADDLKKLKPGLEKDFLPLYFGWFLTKKSSETLRKAGQVFLEELGNHKAFKKELRHFISGDEPKEKLELVSYFGKRPPGVLHCTTKFCDYGKAAGAEEYAQQEVVKRSYGKAFKLSISALFVTPKTAGAQVVLTDQELQLWPSDLDKPSASEGLPPGSRAHVTLGCAADVQPVQTGLDLLDILQQVKGGSQGEAVGELPRGKLYSLGKGRWMLSLTKKMEVKAIFTGYYGKGKPVPIHGSRKGGAMQICTII"
2,binds,"Cntn1 (protein, UniProt P12960 21-1001) DFTWHRRYGHGVSEEDKGFGPIFEEQPINTIYPEESLEGKVSLNCRARASPFPVYKWRMNNGDVDLTNDRYSMVGGNLVINNPDKQKDAGVYYCLASNNYGMVRSTEATLSFGYLDPFPPEERPEVKVKEGKGMVLLCDPPYHFPDDLSYRWLLNEFPVFITMDKRRFVSQTNGNLYIANVESSDRGNYSCFVSSPSITKSVFSKFIPLIPIPERTTKPYPADIVVQFKDIYTMMGQNVTLECFALGNPVPDIRWRKVLEPMPSTAEISTSGAVLKIFNIQLEDEGLYECEAENIRGKDKHQARIYVQAFPEWVEHINDTEVDIGSDLYWPCIATGKPIPTIRWLKNGYSYHKGELRLYDVTFENAGMYQCIAENAYGSIYANAELKILALAPTFEMNPMKKKILAAKGGRVIIECKPKAAPKPKFSWSKGTEWLVNSSRILIWEDGSLEINNITRNDGGIYTCFAENNRGKANSTGTLVITNPTRIILAPINADITVGENATMQCAASFDPALDLTFVWSFNGYVIDFNKEITHIHYQRNFMLDANGELLIRNAQLKHAGRYTCTAQTIVDNSSASADLVVRGPPGPPGGLRIEDIRATSVALTWSRGSDNHSPISKYTIQTKTILSDDWKDAKTDPPIIEGNMESAKAVDLIPWMEYEFRVVATNTLGTGEPSIPSNRIKTDGAAPNVAPSDVGGGGGTNRELTITWAPLSREYHYGNNFGYIVAFKPFDGEEWKKVTVTNPDTGRYVHKDETMTPSTAFQVKVKAFNNKGDGPYSLVAVINSAQDAPSEAPTEVGVKVLSSSEISVHWKHVLEKIVESYQIRYWAGHDKEAAAHRVQVTSQEYSARLENLLPDTQYFIEVGACNSAGCGPSSDVIETFTRKAPPSQPPRIISSVRSGSRYIITWDHVVALSNESTVTGYKILYRPDGQHDGKLFSTHKHSIEVPIPRDGEYVVEVRAHSDGGDGVVSQVKISGVSTLS"
3,binds,"Golga2 (protein, UniProt Q921M4 1-999) MWPPRFPPPRPGMSEETRQSKLAAAKKKLREYQQKNSPGVPAGAKKKKKIKNGHSPERPTASDCQSPENVPTDHIAPAPPTAATDTMFLGVTPSPDADLTQSHDAGNCSNLMEETKTFSSTESLRQLSQQLNGLVSESTSYINGEGLTSSNMKELENRYQELAVALDSSYVTNKQLSSTIEELKQQNQDTLDQLEKEKKDYQQKLAKEQGSLREQLQVHIQTIGILVSEKAELQTALAHTQQAARQKAGESEDLASRLQSSRQRVGELERTLSTVSTQQKQADRYNKDLTKERDALKLELYKNSKSNEDLRQQNSELEEKLRVLVAEKAAAQLGVEELQKKLEMSELLLQQFSSQSSAAGGNEQLQHAMEERAQLETHVSQLMESLKQLQVERDQYAENLKGESAMWQQRVQQMAEQVHTLKEEKEHRERQVQELETSLAALRSQMEEPPPPEPPAGPSEAEEQLQGEVEQLHKELERLTGQLRAQVQDNESLSHLNREQEGRLLELEREAQRWSEQAEERKQILESMQSDRTTISRALSQNRELKEQLAELQNGFVRLTNENMEITSALQSEQHVKKELARKLGELQERLGELKETVELKSQEAQGLQEQRDQCLSHLQQYAAAYQQHLAAYEQLTSEKEAIHKQLLLQTQLMDQLQHEEVQGKMAAELARQELQEAQERLKATSQENQQLQAQLSLLVLPGEGDVDQEEEDEEVPQSSLAIPEDLDSREAMVAFFNAAIARAEEEQARLRVQLKEQKARCRSLSHLAAPVQSKLEKEAVVPRNVDDSASEESNQALHVAMEKLQSRFLEVMQEKVELKERVEELEHCCIQLSGETDTIGEYIALYQNQRAVLKARHLEKEEYISRLAQDKEEMKVKLLELQELVLRLVNERNEWQGKFLAVSQNPGDVLTPVPTGSQEFGAADQQDDLREVSLADDIEPAQGEAGVPAPHENPTAQQIMQLLREIQNPRERPGLGSNPCIPFFYRADENDEVKIMVV"

# No constants are given. Whether binding was seen depends on the method and setting. In cells and extracts the contact can be indirect. Here binding means that the protein was enriched with, or labelled near, the bait; the list need not be complete.
